The values below come from PMC8750874.

Results are given in words; binding and its absence hold for the method and conditions named. In cells and extracts the contact can be indirect. A yes stands for co-enrichment or nearness to the bait. Other partners may have been found. For part of these data: Where a sequence is shown, tags or fusion partners need not be part of it.

In test [1] the target is T1, Rubicon, human, endogenous (human (endogenous in THP-1 and colon)) (UniProt Q92622).
T1 sequence: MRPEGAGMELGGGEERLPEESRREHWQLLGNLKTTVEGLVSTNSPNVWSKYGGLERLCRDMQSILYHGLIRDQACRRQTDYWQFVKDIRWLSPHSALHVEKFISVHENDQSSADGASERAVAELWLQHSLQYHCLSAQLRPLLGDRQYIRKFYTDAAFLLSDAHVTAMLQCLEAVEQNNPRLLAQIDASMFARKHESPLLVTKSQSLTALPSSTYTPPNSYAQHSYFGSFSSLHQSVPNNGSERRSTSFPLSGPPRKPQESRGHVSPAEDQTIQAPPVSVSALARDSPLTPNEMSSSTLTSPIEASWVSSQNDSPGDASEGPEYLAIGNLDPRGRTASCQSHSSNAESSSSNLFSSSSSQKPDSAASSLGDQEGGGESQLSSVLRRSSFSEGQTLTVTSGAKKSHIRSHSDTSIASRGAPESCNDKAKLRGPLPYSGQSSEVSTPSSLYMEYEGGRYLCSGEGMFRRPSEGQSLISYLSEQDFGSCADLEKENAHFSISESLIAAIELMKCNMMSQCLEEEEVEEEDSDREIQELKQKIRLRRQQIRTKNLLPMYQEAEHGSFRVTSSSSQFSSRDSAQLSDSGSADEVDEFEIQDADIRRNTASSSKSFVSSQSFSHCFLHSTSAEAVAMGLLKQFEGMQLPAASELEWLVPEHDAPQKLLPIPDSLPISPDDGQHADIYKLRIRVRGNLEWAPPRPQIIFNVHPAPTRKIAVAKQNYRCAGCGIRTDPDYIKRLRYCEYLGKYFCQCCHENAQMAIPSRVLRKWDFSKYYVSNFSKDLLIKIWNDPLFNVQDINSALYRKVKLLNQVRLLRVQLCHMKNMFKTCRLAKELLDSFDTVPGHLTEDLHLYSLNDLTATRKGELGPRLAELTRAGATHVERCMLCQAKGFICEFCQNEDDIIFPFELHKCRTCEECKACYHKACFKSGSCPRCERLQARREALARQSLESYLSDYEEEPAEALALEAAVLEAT
Nature of the test: affinity purification with mass spectrometry; IP with anti-Rubicon from fractionated THP-1 cells, followed by mass spectrometry.

Test [2] deals with T2, full-length mouse Rubicon expressed from adenovirus (Ad-Rubicon) (mouse) (UniProt Q80U62).
T2 sequence: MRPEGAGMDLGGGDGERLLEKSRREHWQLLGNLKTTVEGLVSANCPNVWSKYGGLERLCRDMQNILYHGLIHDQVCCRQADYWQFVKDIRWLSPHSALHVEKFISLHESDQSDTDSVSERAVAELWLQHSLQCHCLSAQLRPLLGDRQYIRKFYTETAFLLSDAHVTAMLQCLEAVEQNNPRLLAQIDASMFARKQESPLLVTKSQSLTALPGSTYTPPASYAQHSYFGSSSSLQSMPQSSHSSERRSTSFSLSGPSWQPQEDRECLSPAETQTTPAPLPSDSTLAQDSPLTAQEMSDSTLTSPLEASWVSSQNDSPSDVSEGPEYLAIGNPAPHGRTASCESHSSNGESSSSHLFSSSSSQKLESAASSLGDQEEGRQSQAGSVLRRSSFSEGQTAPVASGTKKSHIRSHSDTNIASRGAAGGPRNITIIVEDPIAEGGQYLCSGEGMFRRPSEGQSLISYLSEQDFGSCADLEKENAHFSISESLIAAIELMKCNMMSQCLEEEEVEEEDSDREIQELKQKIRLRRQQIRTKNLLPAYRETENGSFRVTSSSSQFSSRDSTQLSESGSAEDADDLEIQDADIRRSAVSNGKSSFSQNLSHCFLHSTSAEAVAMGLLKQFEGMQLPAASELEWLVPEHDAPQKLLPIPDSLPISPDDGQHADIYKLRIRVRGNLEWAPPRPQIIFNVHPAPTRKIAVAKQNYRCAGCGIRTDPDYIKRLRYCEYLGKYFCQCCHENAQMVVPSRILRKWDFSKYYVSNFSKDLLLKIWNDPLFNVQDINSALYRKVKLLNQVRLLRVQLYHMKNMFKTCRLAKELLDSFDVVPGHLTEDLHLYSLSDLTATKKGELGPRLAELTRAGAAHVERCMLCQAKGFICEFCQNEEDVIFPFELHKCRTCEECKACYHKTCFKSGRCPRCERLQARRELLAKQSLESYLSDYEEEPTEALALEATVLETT
Nature of the test: affinity purification with mass spectrometry; IP with anti-Rubicon (18 h, 4 °C) from cytosolic and mitochondrial fractions of BMDMs transduced with Ad-Vector or Ad-Rubicon; NP-40 buffer (50 mM HEPES pH 7.4, 150 mM NaCl, 1 mM EDTA, 1% NP-40); silver-stained bands excised and analysed by mass spectrometry.

In test [3] the target is T3, Run/cysteine-rich-domain-containing Beclin1-interacting autophagy protein (Rubicon), mouse, endogenous (mouse (endogenous in BMDMs and colon)) (UniProt Q80U62).
T3 sequence: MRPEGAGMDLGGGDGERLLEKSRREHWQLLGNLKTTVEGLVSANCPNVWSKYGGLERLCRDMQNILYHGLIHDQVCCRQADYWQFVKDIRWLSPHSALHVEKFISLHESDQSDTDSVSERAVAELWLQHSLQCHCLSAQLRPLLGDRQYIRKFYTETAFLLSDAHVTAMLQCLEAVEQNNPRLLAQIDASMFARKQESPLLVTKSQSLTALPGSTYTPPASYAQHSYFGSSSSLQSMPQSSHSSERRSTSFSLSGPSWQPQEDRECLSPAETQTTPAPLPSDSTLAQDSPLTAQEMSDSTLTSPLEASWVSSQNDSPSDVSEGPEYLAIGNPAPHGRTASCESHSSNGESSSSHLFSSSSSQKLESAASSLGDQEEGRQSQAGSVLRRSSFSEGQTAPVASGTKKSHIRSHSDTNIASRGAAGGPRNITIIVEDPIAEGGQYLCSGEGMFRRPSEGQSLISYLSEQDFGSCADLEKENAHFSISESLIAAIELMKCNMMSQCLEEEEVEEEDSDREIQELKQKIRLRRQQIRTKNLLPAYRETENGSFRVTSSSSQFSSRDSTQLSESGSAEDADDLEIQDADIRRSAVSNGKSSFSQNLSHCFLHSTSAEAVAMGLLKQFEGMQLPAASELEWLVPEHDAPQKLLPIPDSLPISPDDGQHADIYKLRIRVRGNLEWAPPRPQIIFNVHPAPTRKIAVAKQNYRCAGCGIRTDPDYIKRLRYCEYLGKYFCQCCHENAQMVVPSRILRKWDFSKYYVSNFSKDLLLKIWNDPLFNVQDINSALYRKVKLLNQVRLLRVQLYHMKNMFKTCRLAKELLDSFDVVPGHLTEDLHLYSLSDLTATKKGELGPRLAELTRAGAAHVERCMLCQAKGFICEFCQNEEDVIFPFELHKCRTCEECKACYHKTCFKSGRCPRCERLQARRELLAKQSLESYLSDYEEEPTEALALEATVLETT
The description is as above.

For the molecule “p22phox (CYBA), human, endogenous (from UniProt P13498 1-195)”, in test [1], the binding result was “binds”.

B1: p22phox (cytochrome b-245 light chain, CYBA), mouse, endogenous (protein, UniProt Q61462 1-192)
chain: MGQIEWAMWANEQALASGLILITGGIVATAGRFTQWYFGAYSIAAGVLICLLEYPRGKRKKGSTMERCGQKYLTSVVKLFGPLTRNYYVRAALHFLLSVPAGFLLATILGTVCLAIASVIYLLAAIRGEQWTPIEPKPKERPQVGGTIKQPPTNPPPRPPAEVRKKPSEGEEEAASAGGPQVNPMPVTDEVV
Consider B1, for which the binding entry in test [2] and in test [3] was “binds” throughout.
